Measurements: patent publication US4603142A, “Cholesterol lowering method of use” (Wisconsin Alumni Research Foundation, priority 1984, dated 1986)
Where no unit stands, none is given here, and values compare only within one read-out.

Test: Body weight and weight gain in 3-week-old broiler male chickens fed supplemented corn diet
Assay type: in vivo, chicken

CC(C)=CCC/C(C)=C/CC/C(C)=C/CC[C@]1(C)CCc2c(C)c(O)c(C)c(C)c2O1 [Cholesterol inhibitor I, 2,5,7,8-tetramethyl-2 (4,8, 12-trimethyltrideca-3,7, 11-trienyl)chroman-6-ol]
Influence on weight gain (5 ppm, Table 2): no influence on weight gain
Gain in Weight (corn diet + 5 ppm, one-day-old to three-week-old): 308 gm
Body Weight Final (corn diet + 5 ppm, three-week-old broiler male chickens, mean ± SD, N = 9): 356 ± 33
